Consider one substance from article PMC4376871.

In assay [1] the target is T1, Arabidopsis SHAGGY-like protein kinase AtSK41 fused to the GAL4 DNA binding domain (Arabidopsis thaliana (ecotype Sei-0 cDNA)) (UniProt Q39019).
T1 sequence: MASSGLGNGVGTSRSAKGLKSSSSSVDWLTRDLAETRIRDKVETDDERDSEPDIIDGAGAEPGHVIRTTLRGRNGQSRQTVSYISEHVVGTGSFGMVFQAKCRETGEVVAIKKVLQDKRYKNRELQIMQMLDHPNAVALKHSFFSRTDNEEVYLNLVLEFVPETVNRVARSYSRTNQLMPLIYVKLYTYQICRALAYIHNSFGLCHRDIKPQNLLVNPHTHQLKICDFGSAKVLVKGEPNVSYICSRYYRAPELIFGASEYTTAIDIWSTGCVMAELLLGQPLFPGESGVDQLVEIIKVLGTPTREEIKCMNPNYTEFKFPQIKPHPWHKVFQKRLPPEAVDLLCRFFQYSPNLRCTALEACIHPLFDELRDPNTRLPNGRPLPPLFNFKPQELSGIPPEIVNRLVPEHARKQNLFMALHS
Put plainly: two-hybrid; Matchmaker Two-Hybrid System 3, yeast AH109; C4 on the GAL4 activation domain, AtSKs and Lamin C on the GAL4 DNA binding domain; growth curves (OD600) in quadruple dropout medium at 30°C, high stringency.

In assay [2] the target is T2, Arabidopsis SHAGGY-like protein kinase AtSK21 fused to the GAL4 DNA binding domain (Arabidopsis thaliana (ecotype Sei-0 cDNA)) (UniProt Q39011).
T2 sequence: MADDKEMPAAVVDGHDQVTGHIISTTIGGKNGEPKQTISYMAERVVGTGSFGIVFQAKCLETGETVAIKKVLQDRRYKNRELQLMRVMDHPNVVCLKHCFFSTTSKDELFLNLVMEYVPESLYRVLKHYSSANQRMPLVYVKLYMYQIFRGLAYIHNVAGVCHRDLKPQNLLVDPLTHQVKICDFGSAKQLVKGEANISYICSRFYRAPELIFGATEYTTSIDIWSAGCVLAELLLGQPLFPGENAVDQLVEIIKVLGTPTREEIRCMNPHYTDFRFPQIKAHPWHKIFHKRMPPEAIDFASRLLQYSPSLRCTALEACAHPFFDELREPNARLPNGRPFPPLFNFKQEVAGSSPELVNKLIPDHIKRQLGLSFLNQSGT
Described as above.

The target in assay [3] is T3, Arabidopsis SHAGGY-like protein kinase AtSK12 fused to the GAL4 DNA binding domain (Arabidopsis thaliana (ecotype Sei-0 cDNA)) (UniProt P43289).
T3 sequence: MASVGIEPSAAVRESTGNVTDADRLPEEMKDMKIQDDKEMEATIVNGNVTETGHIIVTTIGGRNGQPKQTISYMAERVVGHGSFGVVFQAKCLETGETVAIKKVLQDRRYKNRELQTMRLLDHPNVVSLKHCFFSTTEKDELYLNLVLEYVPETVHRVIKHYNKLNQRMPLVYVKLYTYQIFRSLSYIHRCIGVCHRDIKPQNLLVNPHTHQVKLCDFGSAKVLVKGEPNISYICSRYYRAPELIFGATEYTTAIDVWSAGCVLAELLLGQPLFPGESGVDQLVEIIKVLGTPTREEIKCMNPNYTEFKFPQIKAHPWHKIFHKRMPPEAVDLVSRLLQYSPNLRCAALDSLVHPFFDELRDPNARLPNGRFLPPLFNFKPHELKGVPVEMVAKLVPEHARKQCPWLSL
The description is as above.

Assay [4] has as its target T4, Arabidopsis SHAGGY-like protein kinase AtSK22 fused to the GAL4 DNA binding domain (Arabidopsis thaliana (ecotype Sei-0 cDNA)) (UniProt Q39012).
T4 sequence: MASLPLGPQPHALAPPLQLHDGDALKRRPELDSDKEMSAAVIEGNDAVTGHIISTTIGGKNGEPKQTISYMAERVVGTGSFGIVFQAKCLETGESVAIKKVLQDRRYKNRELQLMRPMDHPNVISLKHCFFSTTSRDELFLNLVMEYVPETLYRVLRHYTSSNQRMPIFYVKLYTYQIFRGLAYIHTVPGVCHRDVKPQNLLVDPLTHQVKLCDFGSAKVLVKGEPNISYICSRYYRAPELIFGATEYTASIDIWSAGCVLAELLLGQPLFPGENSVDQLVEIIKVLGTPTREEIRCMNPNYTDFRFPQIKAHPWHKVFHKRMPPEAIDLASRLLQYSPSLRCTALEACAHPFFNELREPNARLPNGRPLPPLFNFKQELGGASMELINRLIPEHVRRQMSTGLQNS
Put plainly: two-hybrid; yeast Y187; C4 or C4 mutants on AD, AtSKs on DBD; quantitative ß-galactosidase activity (Galacto-Star, chemiluminescence) relative to the C4/AtSK23 interaction.

Assay [5] deals with T5, Kinase-dead AtSK21K69R fused to the GAL4 DNA binding domain (Arabidopsis thaliana (ecotype Sei-0 cDNA)) (UniProt Q39011).
T5 sequence: T2 sequence with K69R
The description is as above.

For assay [6], the target named is T2, Arabidopsis SHAGGY-like protein kinase AtSK21 fused to the GAL4 DNA binding domain (Arabidopsis thaliana (ecotype Sei-0 cDNA)). Described as above.

Numbering of substitutions follows the chain as printed. No constants are given. Whether binding was seen depends on the method and setting. For part of these data: A result given as binding can be weak or reduced; the word gives no strength. Tags and fused reporters may be left off the sequences shown.

With “Beet curly top virus (BCTV-B[US:Logan:76]) C4 protein fused to the GAL4 activation domain”, the binding entry is “no binding” in assay [1]; “binds” in assay [2]; “binds” in assay [3]; “binds” in assay [4]; “no binding” in assay [5]; “binds” in assay [6].
